Reference: doi:10.1101/2021.05.02.442373
These are yes or no findings as the source states them, for the method shown. Some results given as binding are weak or reduced against the parent protein; the word gives no strength. Where a sequence is shown, tags or fusion partners need not be part of it.

Tests used:
[1] = target: T1, untagged human p75^NTR death domain (330-427) (human), P08138; experiment: SEC; conditions: remark: other sources report otherwise
T1 chain: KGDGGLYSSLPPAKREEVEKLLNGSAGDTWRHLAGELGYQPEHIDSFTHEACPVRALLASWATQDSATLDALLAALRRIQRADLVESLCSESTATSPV

[2] = target: T1, untagged human p75^NTR death domain …; experiment: dynamic light scattering; conditions: remark: other sources report otherwise

B1: untagged human p75^NTR death domain (330-427), P08138 330-427 (domain or fragment)
chain: T1 chain
binding [1]: binds | binding [2]: binds
